Test results from US12065471B2, “B*44 restricted peptides for use in immunotherapy against cancers and related methods” (Immatics Biotechnologies GmbH, priority 2018, dated 2024).

system: HLA molecules of primary tumor and normal tissue samples; assay: Identification and quantitation of tumor associated peptides presented on the cell surface (HLA immunoprecipitation, label-free LC-MS); parameters: species or system human; settings: HLA-B*44 positive normal (N=124) vs tumor samples (N=159), FIGS. 1A-1M

Substance | over-presentation of peptide in cancer tissues (median MS signal intensities, detection frequency)
VEAATVSKW (listed as Homo sapiens) [SEQ ID NO: 225] | over-presentation
EECDKAYSF (listed as Homo sapiens) [SEQ ID NO: 364] | over-presentation
SESKVFQLL (listed as Homo sapiens) [SEQ ID NO: 453] | over-presentation

same assay, conditions: cancer entities on which the peptide was found presented (HLA immunoprecipitation, LC-MS); abbreviations in table footnotes

Substance | Peptide Presentation on cancer entities
315 (MEQQSQEY; listed as Homo sapiens) [compound 315] | OSCAR
61 (AEYSVHKI; listed as Homo sapiens) [compound 61] | PACA
12 (KEVDPTGHSF; listed as Homo sapiens) [compound 12] | GBC, MEL
337 (VEVIPEGAML; listed as Homo sapiens) [compound 337] | CLL
430 (RELARVVTL; listed as Homo sapiens) [compound 430] | SCLC
346 (EEIENLQAQF; listed as Homo sapiens) [compound 346] | MEL
136 (EEMPEEIHL; listed as Homo sapiens) [compound 136] | HNSCC, OSCAR
418 (GEPRKLLTQDW; listed as Homo sapiens) [compound 418] | HNSCC, NSCLCadeno
58 (KEMDPSRQSY; listed as Homo sapiens) [compound 58] | HCC
4 (AEALGAAKKL; listed as Homo sapiens) [compound 4] | UEC
75 (LETSCGSSTAY; listed as Homo sapiens) [compound 75] | NSCLCadeno
408 (AFSLLSAAFY; listed as Homo sapiens) [compound 408] | NSCLCsquam
255 (KQWEYNEKLAF; listed as Homo sapiens) [compound 255] | GBM
70 (AEAEEAMKRL; listed as Homo sapiens) [compound 70] | HNSCC
231 (AEALVDGKWQEF; listed as Homo sapiens) [compound 231] | UBC
355 (SETSTGTSV; listed as Homo sapiens) [compound 355] | NSCLCadeno, PACA
188 (AEFVPKADLL; listed as Homo sapiens) [compound 188] | NSCLCsquam
84 (AETSYVKVLEY; listed as Homo sapiens) [compound 84] | GBC
427 (AEMLGSVVGNW; listed as Homo sapiens) [compound 427] | NSCLCadeno
318 (SESSSFLKV; listed as Homo sapiens) [compound 318] | PACA
27 (GETCVRITY; listed as Homo sapiens) [compound 27] | MEL
142 (QELFLHPVL; listed as Homo sapiens) [compound 142] | NHL
252 (EEFIGKIGI; listed as Homo sapiens) [compound 252] | AML, BRCA, CCC, CLL, CRC, GBC, GC, HCC, HNSCC, MEL, NHL, NSCLCadeno, NSCLCsquam, OC, OSCAR, PACA, PRCA, RCC, SCLC, UBC, UEC
388 (VEIVTIPSL; listed as Homo sapiens) [compound 388] | CLL, UEC

Substance | Peptide Presentation on cancer entities
359 (NEFRRKLTF; listed as Homo sapiens) [compound 359] | SCLC
379 (AENRVGKMEA; listed as Homo sapiens) [compound 379] | CLL
183 (KEMQVTISQQL; listed as Homo sapiens) [compound 183] | NSCLCadeno
375 (HEATFGEKRF; listed as Homo sapiens) [compound 375] | CCC, GBC, HNSCC, NSCLCsquam, OC, OSCAR, PACA, PRCA, UEC
35 (RELVHMINW; listed as Homo sapiens) [compound 35] | BRCA, UEC
415 (EEAGFPLAY; listed as Homo sapiens) [compound 415] | HNSCC
96 (MDELEEGESY; listed as Homo sapiens) [compound 96] | NHL
314 (EMREERKF; listed as Homo sapiens) [compound 314] | NSCLCadeno, NSCLCsquam
336 (QEVNISLHY; listed as Homo sapiens) [compound 336] | BRCA, CRC, HNSCC, NSCLCsquam, OSCAR
443 (EEYAGQITL; listed as Homo sapiens) [compound 443] | CLL
26 (EESSSPVDEY; listed as Homo sapiens) [compound 26] | GBC, RCC
397 (EECGKAFSVF; listed as Homo sapiens) [compound 397] | CLL
131 (RESHLTEIRQY; listed as Homo sapiens) [compound 131] | BRCA, PRCA
261 (QEWDPQKTEKY; listed as Homo sapiens) [compound 261] | CCC, UEC
417 (EESFRCLPEW; listed as Homo sapiens) [compound 417] | NHL
48 (DEVRALIF; listed as Homo sapiens) [compound 48] | HCC
383 (EEMERDLDMY; listed as Homo sapiens) [compound 383] | CLL, MEL, NHL, NSCLCsquam, UEC
196 (TELEVKIRDW; listed as Homo sapiens) [compound 196] | BRCA, GBC, HNSCC, NSCLCadeno, NSCLCsquam, OSCAR, PACA, UBC
442 (KESDAGKYY; listed as Homo sapiens) [compound 442] | CLL
122 (GESVSWHLF; listed as Homo sapiens) [compound 122] | HNSCC
113 (MEFKTLNKN; listed as Homo sapiens) [compound 113] | MEL
180 (EEHSSKLQTSL; listed as Homo sapiens) [compound 180] | UBC
244 (VESSQAFTW; listed as Homo sapiens) [compound 244] | HNSCC
424 (EEHVYESIIRW; listed as Homo sapiens) [compound 424] | CLL, CRC, NHL
